{"source": "patent US6358975B1", "about": "“Method of using selective parp inhibitors to prevent or treat neurotoxicity” (Johns Hopkins University, priority 1997, dated 2002)", "origin": "cited, not measured here", "tested_on": "infarct volume", "settings": "known treatments, literature; cited from earlier work", "note": "For at least one compound, name, drawing or mass did not settle the structure."}
{"smiles": "C=CC[C@@H]1/C=C(\\C)C[C@H](C)C[C@H](OC)[C@H]2O[C@@](O)(C(=O)C(=O)N3CCCC[C@H]3C(=O)O[C@H](/C(C)=C/[C@@H]3CC[C@@H](O)[C@H](OC)C3)[C@H](C)[C@@H](O)CC1=O)[C@H](C)C[C@@H]2OC", "note": "[FK506]", "values": [{"measurement": "maximal protection against vascular damage in stroke", "value": "50-65%"}]}
